Reference: article PMC7979926
These are yes or no findings as the source states them, for the method shown. In cells and extracts the contact can be indirect. Some entries that bind do so weakly or less than the wild type.

Chains of the proteins cited; added tags and fusions are not shown.
UniProt O82486: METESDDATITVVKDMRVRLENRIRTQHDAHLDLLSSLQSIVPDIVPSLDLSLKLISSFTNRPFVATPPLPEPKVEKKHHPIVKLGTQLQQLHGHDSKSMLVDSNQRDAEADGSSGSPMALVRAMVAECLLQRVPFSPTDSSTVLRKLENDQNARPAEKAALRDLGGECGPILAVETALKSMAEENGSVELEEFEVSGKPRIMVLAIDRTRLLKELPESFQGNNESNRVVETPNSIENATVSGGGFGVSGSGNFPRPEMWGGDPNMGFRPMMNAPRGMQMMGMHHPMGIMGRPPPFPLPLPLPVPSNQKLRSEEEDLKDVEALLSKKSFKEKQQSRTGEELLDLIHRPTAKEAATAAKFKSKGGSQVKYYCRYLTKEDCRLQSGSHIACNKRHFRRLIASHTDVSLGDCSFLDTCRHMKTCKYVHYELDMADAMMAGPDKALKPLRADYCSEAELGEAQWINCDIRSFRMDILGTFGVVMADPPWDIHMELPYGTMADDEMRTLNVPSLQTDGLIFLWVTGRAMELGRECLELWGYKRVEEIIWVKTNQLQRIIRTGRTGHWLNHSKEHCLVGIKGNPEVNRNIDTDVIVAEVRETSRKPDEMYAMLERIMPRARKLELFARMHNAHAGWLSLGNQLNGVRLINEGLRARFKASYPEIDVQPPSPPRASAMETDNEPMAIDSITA

T1: FCA (Arabidopsis) (UniProt O04425)
T1 sequence: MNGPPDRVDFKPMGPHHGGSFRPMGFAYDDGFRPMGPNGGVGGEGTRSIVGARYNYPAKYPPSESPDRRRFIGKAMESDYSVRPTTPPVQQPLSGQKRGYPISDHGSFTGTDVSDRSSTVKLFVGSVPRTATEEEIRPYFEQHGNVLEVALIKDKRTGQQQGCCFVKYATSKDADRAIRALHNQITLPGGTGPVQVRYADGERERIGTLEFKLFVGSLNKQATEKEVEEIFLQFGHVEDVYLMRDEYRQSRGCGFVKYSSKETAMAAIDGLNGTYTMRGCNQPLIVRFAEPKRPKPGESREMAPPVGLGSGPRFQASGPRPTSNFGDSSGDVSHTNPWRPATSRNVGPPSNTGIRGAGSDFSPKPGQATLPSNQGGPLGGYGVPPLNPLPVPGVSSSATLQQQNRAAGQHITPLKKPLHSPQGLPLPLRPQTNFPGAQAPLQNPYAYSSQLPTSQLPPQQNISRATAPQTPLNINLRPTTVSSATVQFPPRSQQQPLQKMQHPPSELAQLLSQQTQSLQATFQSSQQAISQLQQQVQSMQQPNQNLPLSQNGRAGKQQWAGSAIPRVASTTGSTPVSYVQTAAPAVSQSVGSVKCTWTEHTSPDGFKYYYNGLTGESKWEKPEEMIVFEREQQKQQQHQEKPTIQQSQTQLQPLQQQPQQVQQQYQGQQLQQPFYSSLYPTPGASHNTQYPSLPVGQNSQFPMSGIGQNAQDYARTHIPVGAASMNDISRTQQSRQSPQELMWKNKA


Target: T1, FCA (Arabidopsis)
Assay: co-IP; factors co-immunoprecipitated with FCA after formaldehyde cross-linking (procedure of ref. 19); hits listed in Supplementary Table 1

binding | Molecule
binds | MTA (homolog of human METTL3) (from UniProt O82486 1-685)
binds | FIP37 (WTAP) (protein, UniProt Q9ZSZ8 1-330) MEFSSQDDDFGGDDSAANATRASGNRRSFGDLEDDEDDIFGSTTVAPGVRTGMILSLRGSLKNCKDDLASCQNELESAKTEIQKWKSAFQNESFVPAGKSPEPRFLIDYIQNLKSSEKSLKEQLEIAKRKEASCIVQYAKREQEMAELKSAVRDLKSQLKPASMQARRLLLDPAIHEEFSRLKNLVEEKDKKIKELQDNIAAVTFTPQSKNGKMLMAKCRTLQEENEEIGHQAAEGKIHELAIKLAMQKSQNAELRSQFEGLYKHMEELTNDVERSNETVIILQEKLEEKEKEIERVKKGLEIVSELVGDKKDEVDEIDEDAKEEIAGGE
binds | MTB (METLL14) (protein, UniProt Q94AI4 1-775) MKKKQEESSLEKLSTWYQDGEQDGGDRSEKRRMSLKASDFESSSRSGGSKSKEDNKSVVDVEHQDRDSKRERDGRERTHGSSSDSSKRKRWDEAGGLVNDGDHKSSKLSDSRHDSGGERVSVSNEHGESRRDLKSDRSLKTSSRDEKSKSRGVKDDDRGSPLKKTSGKDGSEVVREVGRSNRSKTPDADYEKEKYSRKDERSRGRDDGWSDRDRDQEGLKDNWKRRHSSSGDKDQKDGDLLYDRGREREFPRQGRERSEGERSHGRLGGRKDGNRGEAVKALSSGGVSNENYDVIEIQTKPHDYVRGESGPNFARMTESGQQPPKKPSNNEEEWAHNQEGRQRSETFGFGSYGEDSRDEAGEASSDYSGAKARNQRGSTPGRTNFVQTPNRGYQTPQGTRGNRPLRGGKGRPAGGRENQQGAIPMPIMGSPFANLGMPPPSPIHSLTPGMSPIPGTSVTPVFMPPFAPTLIWPGARGVDGNMLPVPPVLSPLPPGPSGPRFPSIGTPPNPNMFFTPPGSDRGGPPNFPGSNISGQMGRGMPSDKTSGGWVPPRGGGPPGKAPSRGEQNDYSQNFVDTGMRPQNFIRELELTNVEDYPKLRELIQKKDEIVSNSASAPMYLKGDLHEVELSPELFGTKFDVILVDPPWEEYVHRAPGVSDSMEYWTFEDIINLKIEAIADTPSFLFLWVGDGVGLEQGRQCLKKWGFRRCEDICWVKTNKSNAAPTLRHDSRTVFQRSKEHCLMGIKGTVRRSTDGHIIHANIDTDVIIAEEPPYG
